This assay has as its system L1210 leukemia ip in BDF1 mice, survival T/C. As to the kind of experiment: NCI In Vivo Anticancer Drug Screen. Data for tumor model L1210 Leukemia (intraperitoneal) in B6D2F1 (BDF1) mice. To be noted: T/C endpoint: mean survival time, higher T/C = longer survival.
The mark [1] stands for this setting: dose: 3.0 mg/kg/injection, schedule: Q01DX009 (ip), vehicle: saline.

In PubChem BioAssay AID248 (DTP/NCI, 2004) one finds T/C data, which are given here for five compounds.

The list is a part of this screen's results and no random one: it covers a few groups of compounds. Not every dose and run of a compound is shown. T/C is the treated group as % of the vehicle group. For survival time, this PubChem deposit counts one and a half times the control or more as active, and values a quarter to a half above the control carry no call in these data; other NCI protocols may use other cut-offs. Some T/C values are marked as having no survivor count here; that says nothing about deaths at the dose. Schedules are NCI's codes, taken here to give the interval after Q, in days (D) or hours (H), and the number of doses after X. Some entries hold several experiments; their values stand side by side, smallest first. Some schedules carry Z or #; the key to these is not given.

As to `CCCCN(CCCl)CCCC`, the T/C is 114 % of control [survivor count not shown] under setting [1]; 121 % of control [survivor count not shown] (dose: 6.0 mg/kg/injection, schedule: Q01DX009 (ip), vehicle: saline); 117 % of control [survivor count not shown] (dose: 12.0 mg/kg/injection, schedule: Q01DX009 (ip), vehicle: saline); 103 % of control [survivor count not shown] (dose: 20.0 mg/kg/injection, schedule: Q04DX003 (ip), vehicle: saline); 90 % of control [survivor count not shown] (dose: 25.0 mg/kg/injection, schedule: Q01DX009 (ip), vehicle: saline); 113 % of control [survivor count not shown] (dose: 40.0 mg/kg/injection, schedule: Q04DX003 (ip), vehicle: saline). Also, the T/C (dose: 80.0 mg/kg/injection, schedule: Q04DX003 (ip), vehicle: saline) was 104 % of control [survivor count not shown] and the T/C (dose: 100.0 mg/kg/injection, schedule: Q04DX003 (ip), vehicle: saline) is 105 % of control [survivor count not shown].
On to `Cc1ccc2nc(CN(CCCl)CCCl)[nH]c2c1`, for which the T/C by setting is: (dose: 8.0 mg/kg/injection, schedule: Q01DX Z (ip), vehicle: methylcellulose (MC)) 98 % of control [survivor count not shown]; (dose: 11.0 mg/kg/injection, schedule: Q04DX003 (ip), vehicle: saline sonified) 105 % of control [survivor count not shown]; (dose: 12.0 mg/kg/injection, schedule: Q01DX Z (ip), vehicle: methylcellulose (MC)) 105 % of control [survivor count not shown]; (dose: 16.5 mg/kg/injection, schedule: Q04DX003 (ip), vehicle: saline sonified) 130 % of control [survivor count not shown]; (dose: 18.0 mg/kg/injection, schedule: Q01DX Z (ip), vehicle: methylcellulose (MC)) 116 % of control [survivor count not shown]; (dose: 25.0 mg/kg/injection, schedule: Q04DX003 (ip), vehicle: Klucel (hydroxypropylcellulose) (HPC)) 126 % of control [survivor count not shown]. The T/C runs as follows: (dose: 25.0 mg/kg/injection, schedule: Q04DX003 (ip), vehicle: saline sonified) 110 % of control [survivor count not shown]; (dose: 27.0 mg/kg/injection, schedule: Q01DX Z (ip), vehicle: methylcellulose (MC)) 127 % of control [survivor count not shown].
As for `NC(Cc1ccc(O)c(N(CCCl)CCCl)c1)C(=O)O` (stereo unspecified), the T/C (dose: 0.02 mg/kg/injection, schedule: Q01DX009 (ip), vehicle: saline) was 125 % of control [survivor count not shown]; the T/C (dose: 0.05 mg/kg/injection, schedule: Q01DX009 (ip), vehicle: saline) is 144 % of control [survivor count not shown]; the T/C (dose: 0.1 mg/kg/injection, schedule: Q01DX009 (ip), vehicle: saline) is 150 % of control [survivor count not shown]; the T/C (dose: 0.19 mg/kg/injection, schedule: Q01DX009 (ip), vehicle: saline) is 110 % of control [survivor count not shown]; the T/C (dose: 0.2 mg/kg/injection, schedule: Q01DX009 (ip), vehicle: saline) was 157 % of control [survivor count not shown]; the T/C (dose: 0.37 mg/kg/injection, schedule: Q01DX001 (ip), vehicle: saline) was 101 [survivor count not shown] and 132 % of control [survivor count not shown]. Besides, the T/C is 191 % of control [survivor count not shown] (dose: 0.37 mg/kg/injection, schedule: Q01DX009 (ip), vehicle: saline); 104 [survivor count not shown] and 134 % of control [survivor count not shown] (dose: 0.75 mg/kg/injection, schedule: Q01DX001 (ip), vehicle: saline); 176 [survivor count not shown] and 218 % of control [survivor count not shown] (dose: 0.75 mg/kg/injection, schedule: Q01DX009 (ip), vehicle: saline); 121 [survivor count not shown] and 134 % of control [survivor count not shown] (dose: 1.5 mg/kg/injection, schedule: Q01DX001 (ip), vehicle: saline); 105 [survivor count not shown] and 178 % of control [survivor count not shown] (dose: 1.5 mg/kg/injection, schedule: Q01DX009 (ip), vehicle: saline); 123 [survivor count not shown], 150 [survivor count not shown], 161 [survivor count not shown], 211 % of control [survivor count not shown] (dose: 3.0 mg/kg/injection, schedule: Q01DX001 (ip), vehicle: saline). For the same compound, the T/C reads like this: under setting [1], 98 % of control [survivor count not shown]; (dose: 6.0 mg/kg/injection, schedule: Q01DX001 (ip), vehicle: saline) 134 [survivor count not shown] and 135 % of control [survivor count not shown]; (dose: 12.0 mg/kg/injection, schedule: Q01DX001 (ip), vehicle: saline) 140 % of control [survivor count not shown]; (dose: 24.0 mg/kg/injection, schedule: Q01DX001 (ip), vehicle: saline) 251 % of control [survivor count not shown].
On to `NCCCOP(=O)(O)N(CCCl)CCCl`, for which the T/C by setting is: (dose: 25.0 mg/kg/injection, schedule: Q01DX009 (ip), vehicle: saline with Tween-80) 95 % of control [survivor count not shown]; (dose: 50.0 mg/kg/injection, schedule: Q01DX009 (ip), vehicle: saline with Tween-80) 106 % of control [survivor count not shown]; (dose: 100.0 mg/kg/injection, schedule: Q01DX009 (ip), vehicle: saline with Tween-80) 110 % of control [survivor count not shown]; (dose: 200.0 mg/kg/injection, schedule: Q01DX009 (ip), vehicle: saline with Tween-80) 104 [survivor count not shown] and 125 % of control [survivor count not shown]; (dose: 300.0 mg/kg/injection, schedule: Q01DX009 (ip), vehicle: saline with Tween-80) 146 % of control [survivor count not shown]; (dose: 400.0 mg/kg/injection, schedule: Q01DX009 (ip), vehicle: saline with Tween-80) 126 [survivor count not shown] and 138 % of control [survivor count not shown]. Under “dose: 500.0 mg/kg/injection, schedule: Q01DX009 (ip), vehicle: saline with Tween-80”, the T/C was 134 % of control [survivor count not shown].
On to `ClCCN(CCCl)Cc1nc2ccc(Cl)cc2[nH]1`, for which the T/C runs as follows: (dose: 3.0 mg/kg/injection, schedule: Q01DX010 (ip), vehicle: carboxymethylcellulose (CMC)) 93 % of control [survivor count not shown]; (dose: 6.0 mg/kg/injection, schedule: Q01DX010 (ip), vehicle: carboxymethylcellulose (CMC)) 96 % of control [survivor count not shown]; (dose: 10.0 mg/kg/injection, schedule: Q01DX001 (ip), vehicle: saline) 109 % of control [survivor count not shown]; (dose: 12.0 mg/kg/injection, schedule: Q01DX010 (ip), vehicle: carboxymethylcellulose (CMC)) 100 % of control [survivor count not shown]; (dose: 20.0 mg/kg/injection, schedule: Q01DX001 (ip), vehicle: saline) 111 % of control [survivor count not shown]; (dose: 24.0 mg/kg/injection, schedule: Q01DX010 (ip), vehicle: carboxymethylcellulose (CMC)) 108 % of control [survivor count not shown]. In addition, the T/C (dose: 40.0 mg/kg/injection, schedule: Q01DX001 (ip), vehicle: saline) was 105 % of control [survivor count not shown].
